# In patent US20120016004:
# The chains behind the UniProt entries cited, without tags or fusion partners. Where a name states a change or a piece, a line headed by the entry shows the natural chain unless it says otherwise.
# UniProt Q9UPY3: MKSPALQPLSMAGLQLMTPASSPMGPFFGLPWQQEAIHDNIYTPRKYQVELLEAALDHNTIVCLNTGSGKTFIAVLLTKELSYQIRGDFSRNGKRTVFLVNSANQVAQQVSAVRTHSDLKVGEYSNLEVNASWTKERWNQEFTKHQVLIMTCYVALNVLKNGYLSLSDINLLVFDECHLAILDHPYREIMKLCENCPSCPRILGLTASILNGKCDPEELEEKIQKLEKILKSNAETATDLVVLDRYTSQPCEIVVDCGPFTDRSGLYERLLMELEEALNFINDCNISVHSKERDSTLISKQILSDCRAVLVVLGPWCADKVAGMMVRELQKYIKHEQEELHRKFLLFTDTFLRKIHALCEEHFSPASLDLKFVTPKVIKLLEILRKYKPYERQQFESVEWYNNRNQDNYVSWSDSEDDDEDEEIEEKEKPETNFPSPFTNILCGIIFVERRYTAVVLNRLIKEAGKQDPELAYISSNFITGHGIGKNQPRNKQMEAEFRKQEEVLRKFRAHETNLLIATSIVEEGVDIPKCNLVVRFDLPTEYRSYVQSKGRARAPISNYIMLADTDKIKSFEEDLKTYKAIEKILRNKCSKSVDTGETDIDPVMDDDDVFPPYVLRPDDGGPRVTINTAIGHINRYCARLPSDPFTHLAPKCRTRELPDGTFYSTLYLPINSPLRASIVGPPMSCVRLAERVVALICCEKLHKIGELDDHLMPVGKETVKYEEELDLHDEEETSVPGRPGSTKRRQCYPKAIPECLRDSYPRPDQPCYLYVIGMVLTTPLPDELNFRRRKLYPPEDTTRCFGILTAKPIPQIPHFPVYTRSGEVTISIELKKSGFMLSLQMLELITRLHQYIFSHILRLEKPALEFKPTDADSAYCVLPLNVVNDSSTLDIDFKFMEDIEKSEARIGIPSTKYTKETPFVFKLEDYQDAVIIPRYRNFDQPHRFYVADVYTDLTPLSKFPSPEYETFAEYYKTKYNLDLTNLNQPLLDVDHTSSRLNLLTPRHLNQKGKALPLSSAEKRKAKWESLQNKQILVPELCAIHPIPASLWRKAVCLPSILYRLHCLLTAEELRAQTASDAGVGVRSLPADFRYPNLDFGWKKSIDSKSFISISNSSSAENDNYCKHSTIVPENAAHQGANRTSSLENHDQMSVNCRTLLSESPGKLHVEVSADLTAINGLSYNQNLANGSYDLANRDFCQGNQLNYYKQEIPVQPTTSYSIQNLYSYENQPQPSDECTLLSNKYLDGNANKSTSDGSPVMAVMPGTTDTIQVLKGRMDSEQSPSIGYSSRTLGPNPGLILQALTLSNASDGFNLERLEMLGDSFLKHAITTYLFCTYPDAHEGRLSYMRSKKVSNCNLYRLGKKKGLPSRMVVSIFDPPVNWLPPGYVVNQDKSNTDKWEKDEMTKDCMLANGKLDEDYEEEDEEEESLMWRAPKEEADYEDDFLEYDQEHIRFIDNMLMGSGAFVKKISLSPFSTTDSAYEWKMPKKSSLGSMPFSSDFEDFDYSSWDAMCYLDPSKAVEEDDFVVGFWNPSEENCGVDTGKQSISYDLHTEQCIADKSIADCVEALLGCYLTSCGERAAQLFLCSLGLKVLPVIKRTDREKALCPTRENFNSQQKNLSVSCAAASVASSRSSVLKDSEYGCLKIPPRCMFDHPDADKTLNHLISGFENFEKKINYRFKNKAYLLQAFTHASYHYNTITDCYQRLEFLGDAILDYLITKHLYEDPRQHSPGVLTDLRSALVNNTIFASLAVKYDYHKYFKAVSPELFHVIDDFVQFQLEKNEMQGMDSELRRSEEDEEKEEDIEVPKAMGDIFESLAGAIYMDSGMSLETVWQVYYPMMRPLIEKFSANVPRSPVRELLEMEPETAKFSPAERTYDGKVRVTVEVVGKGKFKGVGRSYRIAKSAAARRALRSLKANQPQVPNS
# Target: Dicer (human) (UniProt Q9UPY3)
# Experiment: enzyme reaction in vitro
# Settings: PS backbone; two copies of the strand joined at 5' ends through glycerol linker X, two free 3' ends; 10 nM target and 10 nM oligo, 0.025 U Dicer, 37 C 1 h; text states only that the compounds of the invention give an optimal structure for binding and cleavage; purified recombinant protein; protein details: Invitrogen human Dicer enzyme; label: 5'-32P on target RNA
sequence,measurement,value
AAUGCUUGUCUGUGCAGUCC / GGACUGCACAGACAAGCAUU,activity on this sequence,active
